Article PMC11065870
Results are given in words; binding and its absence hold for the method and conditions named. For some assays here: Binding seen in cells or lysates may run through a third protein. Some results given as binding are weak or reduced against the parent protein; the word gives no strength.

By UniProt entry, the sequences of proteins in these tests, tags left out. Where a name states a change or a piece, a line headed by the entry shows the natural chain unless it says otherwise.
UniProt Q01650: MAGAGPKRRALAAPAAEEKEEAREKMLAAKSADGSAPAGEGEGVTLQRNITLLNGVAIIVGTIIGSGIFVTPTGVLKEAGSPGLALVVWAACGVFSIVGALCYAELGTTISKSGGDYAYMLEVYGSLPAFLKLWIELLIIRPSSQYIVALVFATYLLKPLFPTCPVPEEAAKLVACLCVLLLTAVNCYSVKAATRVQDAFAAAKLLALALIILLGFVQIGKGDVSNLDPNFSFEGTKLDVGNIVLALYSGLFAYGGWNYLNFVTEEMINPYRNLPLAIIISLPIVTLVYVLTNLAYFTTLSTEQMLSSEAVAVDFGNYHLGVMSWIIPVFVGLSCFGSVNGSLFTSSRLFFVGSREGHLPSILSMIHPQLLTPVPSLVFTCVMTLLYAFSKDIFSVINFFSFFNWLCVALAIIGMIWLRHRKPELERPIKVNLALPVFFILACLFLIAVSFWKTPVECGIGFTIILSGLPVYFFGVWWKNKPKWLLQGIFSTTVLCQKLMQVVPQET
UniProt P08195: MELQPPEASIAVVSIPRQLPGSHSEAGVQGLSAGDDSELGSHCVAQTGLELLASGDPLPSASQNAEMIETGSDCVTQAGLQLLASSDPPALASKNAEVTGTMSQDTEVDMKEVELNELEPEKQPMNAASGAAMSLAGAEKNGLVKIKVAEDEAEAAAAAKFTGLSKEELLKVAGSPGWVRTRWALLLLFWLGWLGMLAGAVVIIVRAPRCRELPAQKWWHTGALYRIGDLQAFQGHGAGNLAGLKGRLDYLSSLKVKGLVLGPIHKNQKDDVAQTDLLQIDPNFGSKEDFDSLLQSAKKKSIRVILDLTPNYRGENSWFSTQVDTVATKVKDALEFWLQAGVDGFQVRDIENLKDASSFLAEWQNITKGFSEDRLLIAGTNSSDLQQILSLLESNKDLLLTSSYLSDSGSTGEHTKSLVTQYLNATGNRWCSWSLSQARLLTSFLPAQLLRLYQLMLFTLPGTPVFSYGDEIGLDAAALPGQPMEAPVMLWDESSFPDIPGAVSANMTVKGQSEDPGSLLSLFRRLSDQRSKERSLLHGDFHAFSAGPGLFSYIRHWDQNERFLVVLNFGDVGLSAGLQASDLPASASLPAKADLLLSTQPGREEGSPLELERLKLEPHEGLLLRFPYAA

Tests used:
[1] = target: endogenous LAT1 (SLC7A5) (human (endogenous in HeLa, HepG2, A431)) (UniProt Q01650); assay: non-reducing gel electrophoresis with Western blot; endogenous proteins of HeLa, HepG2 and A431 cells and of the lysosomal fraction of HeLa cells (without and with IFN-γ) separated without reducing the disulfide bond
[2] = target: endogenous LAT1-4F2hc heterodimer on the HeLa cell surface (human (endogenous in HeLa)) (UniProt Q01650+P08195); assay: cross-linking; HeLa cells incubated with BS3 to crosslink cell surface complexes; Western blot with anti-LAT1 antibody

binding [1]	binding [2]	Substance
binds	–	endogenous 4F2hc (SLC3A2) (from UniProt P08195-1 1-630)
–	binds	endogenous LAT1-4F2hc heterodimer on the HeLa cell surface (from UniProt Q01650 1-507; P08195-1 1-630) (complex)
